# Structures can show the parent of a compound that is named as a salt. ± gives the standard deviation of the averaged measurements. This is one part of the list. Single values are uncertain here, since repeats match poorly.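 The A. baumannii strains are clinical isolates chosen because they resist the partner antibiotic, and the screen looks for drugs that restore that antibiotic's effect. The reading at the start of incubation is subtracted to remove background from coloured compounds.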
# Tested on: Acinetobacter baumannii WP-487
# Test: percent growth inhibition of drug + antibiotic vs DMSO control; higher = more growth inhibition
# Conditions: antibiotic (0.125x MIC): colistin; 7 µM
# Method: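 Prestwick drugs tested at 20 uM and 7 uM with an antibiotic at 0.125x MIC (16 mg/L when MIC >128 mg/L) in cation-adjusted Mueller-Hinton broth, 384-well plates, duplicate runs on different days. Percent growth inhibition was computed from OD600 (24 h minus 0 h) relative to DMSO-only wells. Drug + 0.1% DMSO (no antibiotic) wells are also given. Only hits (max corrected inhibition > mean + 3SD) are listed. A. baumannii: NCTC-13301 was used for MEM/CIP/GEN/TGC and WP-487 for colistin. Duplicates with colistin are strongly discordant (run 2 near 100% for most drugs).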
row,SMILES,percent growth inhibition [%]
1,CN[C@H]1CC[C@@H](c2ccc(Cl)c(Cl)c2)c2ccccc21 [Sertraline],0.894 ± 4.3
2,CS(=O)(=O)c1ccc([C@@H](O)[C@@H](CF)NC(=O)C(Cl)Cl)cc1 [Florfenicol],62.6 ± 50
3,CC(=O)N1CCN(c2ccc(OCC3COC(Cn4ccnc4)(c4ccc(Cl)cc4Cl)O3)cc2)CC1 (stereo not given) [Ketoconazole],0.648 ± 6.2
4,CN(C)CCCN1c2ccccc2Sc2ccc(Cl)cc21 [Chlorpromazine hydrochloride],16 ± 25
5,OC(c1cc(C(F)(F)F)nc2c(C(F)(F)F)cccc12)C1CCCCN1 (stereo not given) [Mefloquine hydrochloride],8.4 ± 22
6,CCCCC(=O)O[C@H]1CC[C@H]2[C@@H]3CCc4cc(O)ccc4[C@H]3CC[C@]12C [Estradiol Valerate],47 ± 61
7,COCCOC(=O)C1=C(C)NC(C)=C(C(=O)OC/C=C/c2ccccc2)C1c1cccc([N+](=O)[O-])c1 (stereo not given) [Cilnidipine],54.1 ± 53
8,CN1CCN(CCCN2c3ccccc3Sc3ccc(Cl)cc32)CC1 [Prochlorperazine dimaleate],46.3 ± 62
9,CN1CCC(=C2c3ccccc3Sc3ccccc32)CC1 [Pimethixene maleate],0.435 ± 4.3
10,Cc1ccnc(NS(=O)(=O)c2ccc(N)cc2)n1 [Sulfamerazine],46.8 ± 68
11,CN(C)CCOC1=Cc2ccccc2Sc2ccc(Cl)cc21 [Zotepine],1.84 ± 2.5
12,NC[C@@H]1O[C@H](O[C@H]2[C@@H](O)[C@H](O[C@@H]3[C@@H](O)[C@H](N)C[C@H](N)[C@H]3O[C@H]3O[C@H](CO)[C@@H](O)[C@H](O)[C@H]3N)O[C@@H]2CO)[C@H](N)[C@@H](O)[C@@H]1O [Paromomycin sulfate],10.3 ± 3.1
13,CC(C)(C)CC(C)(C)c1ccc(OCCOCC[N+](C)(C)Cc2ccccc2)cc1 [Benzethonium chloride],56.1 ± 51
14,Clc1cc(Cl)c(OCC#CI)cc1Cl [Haloprogin],48.5 ± 60
15,C=C1/C(=C\C=C2/CCC[C@]3(C)[C@@H]([C@H](C)/C=C/[C@@H](O)C4CC4)CC[C@@H]23)C[C@@H](O)C[C@@H]1O [Calcipotriene],37.6 ± 65
16,CN(C)CCOc1ccc(/C(=C(/CCCl)c2ccccc2)c2ccccc2)cc1 [Toremifene],35.3 ± 60
17,CCN(CC)C(=S)SSC(=S)N(CC)CC [Disulfiram],30.4 ± 41
18,CN1CCN(CCCN2c3ccccc3Sc3ccc(C(F)(F)F)cc32)CC1 [Trifluoperazine dihydrochloride],52.9 ± 54
19,COc1cnc(NS(=O)(=O)c2ccc(N)cc2)nc1 [Sulfameter],9.55 ± 30
20,COc1nc(C)nc(Cl)c1NC1=NCCN1 [Moxonidine],36.9 ± 57

# Same assay, conditions: antibiotic (0.125x MIC): colistin; 20 µM
row,SMILES,percent growth inhibition [%]
1,CN[C@H]1CC[C@@H](c2ccc(Cl)c(Cl)c2)c2ccccc21 [Sertraline],49.7 ± 70
2,CS(=O)(=O)c1ccc([C@@H](O)[C@@H](CF)NC(=O)C(Cl)Cl)cc1 [Florfenicol],97 ± 4.4
3,CC(=O)N1CCN(c2ccc(OCC3COC(Cn4ccnc4)(c4ccc(Cl)cc4Cl)O3)cc2)CC1 (stereo not given) [Ketoconazole],51.4 ± 65
4,CN(C)CCCN1c2ccccc2Sc2ccc(Cl)cc21 [Chlorpromazine hydrochloride],52.1 ± 68
5,OC(c1cc(C(F)(F)F)nc2c(C(F)(F)F)cccc12)C1CCCCN1 (stereo not given) [Mefloquine hydrochloride],60.5 ± 56
6,CCCCC(=O)O[C@H]1CC[C@H]2[C@@H]3CCc4cc(O)ccc4[C@H]3CC[C@]12C [Estradiol Valerate],45.8 ± 63
7,COCCOC(=O)C1=C(C)NC(C)=C(C(=O)OC/C=C/c2ccccc2)C1c1cccc([N+](=O)[O-])c1 (stereo not given) [Cilnidipine],54.6 ± 53
8,CN1CCN(CCCN2c3ccccc3Sc3ccc(Cl)cc32)CC1 [Prochlorperazine dimaleate],52.8 ± 54
9,CN1CCC(=C2c3ccccc3Sc3ccccc32)CC1 [Pimethixene maleate],53.7 ± 65
10,Cc1ccnc(NS(=O)(=O)c2ccc(N)cc2)n1 [Sulfamerazine],50.8 ± 65
11,CN(C)CCOC1=Cc2ccccc2Sc2ccc(Cl)cc21 [Zotepine],55.7 ± 63
12,NC[C@@H]1O[C@H](O[C@H]2[C@@H](O)[C@H](O[C@@H]3[C@@H](O)[C@H](N)C[C@H](N)[C@H]3O[C@H]3O[C@H](CO)[C@@H](O)[C@H](O)[C@H]3N)O[C@@H]2CO)[C@H](N)[C@@H](O)[C@@H]1O [Paromomycin sulfate],96.3 ± 1.5
13,CC(C)(C)CC(C)(C)c1ccc(OCCOCC[N+](C)(C)Cc2ccccc2)cc1 [Benzethonium chloride],98.5 ± 1.9
14,Clc1cc(Cl)c(OCC#CI)cc1Cl [Haloprogin],56.5 ± 50
15,C=C1/C(=C\C=C2/CCC[C@]3(C)[C@@H]([C@H](C)/C=C/[C@@H](O)C4CC4)CC[C@@H]23)C[C@@H](O)C[C@@H]1O [Calcipotriene],5.73 ± 20
16,CN(C)CCOc1ccc(/C(=C(/CCCl)c2ccccc2)c2ccccc2)cc1 [Toremifene],58.4 ± 59
17,CCN(CC)C(=S)SSC(=S)N(CC)CC [Disulfiram],72.9 ± 38
18,CN1CCN(CCCN2c3ccccc3Sc3ccc(C(F)(F)F)cc32)CC1 [Trifluoperazine dihydrochloride],49.9 ± 58
19,COc1cnc(NS(=O)(=O)c2ccc(N)cc2)nc1 [Sulfameter],51.1 ± 64
20,COc1nc(C)nc(Cl)c1NC1=NCCN1 [Moxonidine],-3.85 ± 12
